Results are given in words; binding and its absence hold for the method and conditions named. Binding seen in cells or lysates may run through a third protein. Some binding calls cover weakened binding; strength is not graded here.
Experiments:
[1] = molecular target: T1, NKX2-1 (endogenous) (human (endogenous in DMS 79, NCI-H187, NCI-H209)) (UniProt P43699); experiment: proximity ligation
T1 sequence: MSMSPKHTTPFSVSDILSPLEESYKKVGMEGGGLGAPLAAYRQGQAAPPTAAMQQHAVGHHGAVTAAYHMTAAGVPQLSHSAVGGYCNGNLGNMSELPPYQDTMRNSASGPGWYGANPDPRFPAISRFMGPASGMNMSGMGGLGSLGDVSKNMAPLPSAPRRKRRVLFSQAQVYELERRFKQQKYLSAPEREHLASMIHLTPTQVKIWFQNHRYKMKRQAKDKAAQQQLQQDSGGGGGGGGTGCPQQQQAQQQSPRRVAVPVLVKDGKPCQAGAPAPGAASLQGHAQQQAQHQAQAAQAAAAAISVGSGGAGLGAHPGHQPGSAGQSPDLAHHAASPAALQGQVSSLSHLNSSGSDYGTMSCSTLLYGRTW

Protein sequences, listed by entry. Tags and fused reporters are not part of them.
UniProt O00570: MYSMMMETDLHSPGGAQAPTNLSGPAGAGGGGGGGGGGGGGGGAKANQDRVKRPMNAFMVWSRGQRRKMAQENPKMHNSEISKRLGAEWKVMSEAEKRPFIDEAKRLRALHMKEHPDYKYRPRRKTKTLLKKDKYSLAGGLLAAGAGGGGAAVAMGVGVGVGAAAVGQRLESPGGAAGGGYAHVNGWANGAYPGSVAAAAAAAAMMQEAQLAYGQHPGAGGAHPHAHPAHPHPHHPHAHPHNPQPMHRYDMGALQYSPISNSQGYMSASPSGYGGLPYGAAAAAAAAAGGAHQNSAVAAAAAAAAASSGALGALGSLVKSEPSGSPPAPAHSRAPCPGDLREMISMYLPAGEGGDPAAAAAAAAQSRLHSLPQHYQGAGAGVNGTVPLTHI

[2] = molecular target: T1, NKX2-1 (endogenous) (human (endogenous in DMS 79, NCI-H187, NCI-H209)); experiment: co-IP

binding [1]: binds | binding [2]: binds
Substance: SOX1 (endogenous) (from UniProt O00570 1-391)

— doi:10.1101/2022.03.06.483161
